Assay results from article PMC8048298.
These are yes or no findings as the source states them, for the method shown. For part of these data: Binding seen in cells or lysates may run through a third protein. Some entries that bind do so weakly or less than the wild type.

Amino acid sequences for entries named in this document (tags omitted).
UniProt Q99873: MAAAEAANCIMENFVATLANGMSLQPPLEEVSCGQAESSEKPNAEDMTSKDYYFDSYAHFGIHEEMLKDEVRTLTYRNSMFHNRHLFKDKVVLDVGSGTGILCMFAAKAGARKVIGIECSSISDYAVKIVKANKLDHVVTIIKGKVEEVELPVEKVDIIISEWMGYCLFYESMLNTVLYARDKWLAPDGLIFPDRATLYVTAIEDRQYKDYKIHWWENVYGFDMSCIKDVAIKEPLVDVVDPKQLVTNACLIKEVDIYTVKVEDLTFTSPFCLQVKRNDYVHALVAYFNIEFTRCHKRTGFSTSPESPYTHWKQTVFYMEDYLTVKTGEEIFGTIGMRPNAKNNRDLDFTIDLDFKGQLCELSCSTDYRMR
UniProt P51532: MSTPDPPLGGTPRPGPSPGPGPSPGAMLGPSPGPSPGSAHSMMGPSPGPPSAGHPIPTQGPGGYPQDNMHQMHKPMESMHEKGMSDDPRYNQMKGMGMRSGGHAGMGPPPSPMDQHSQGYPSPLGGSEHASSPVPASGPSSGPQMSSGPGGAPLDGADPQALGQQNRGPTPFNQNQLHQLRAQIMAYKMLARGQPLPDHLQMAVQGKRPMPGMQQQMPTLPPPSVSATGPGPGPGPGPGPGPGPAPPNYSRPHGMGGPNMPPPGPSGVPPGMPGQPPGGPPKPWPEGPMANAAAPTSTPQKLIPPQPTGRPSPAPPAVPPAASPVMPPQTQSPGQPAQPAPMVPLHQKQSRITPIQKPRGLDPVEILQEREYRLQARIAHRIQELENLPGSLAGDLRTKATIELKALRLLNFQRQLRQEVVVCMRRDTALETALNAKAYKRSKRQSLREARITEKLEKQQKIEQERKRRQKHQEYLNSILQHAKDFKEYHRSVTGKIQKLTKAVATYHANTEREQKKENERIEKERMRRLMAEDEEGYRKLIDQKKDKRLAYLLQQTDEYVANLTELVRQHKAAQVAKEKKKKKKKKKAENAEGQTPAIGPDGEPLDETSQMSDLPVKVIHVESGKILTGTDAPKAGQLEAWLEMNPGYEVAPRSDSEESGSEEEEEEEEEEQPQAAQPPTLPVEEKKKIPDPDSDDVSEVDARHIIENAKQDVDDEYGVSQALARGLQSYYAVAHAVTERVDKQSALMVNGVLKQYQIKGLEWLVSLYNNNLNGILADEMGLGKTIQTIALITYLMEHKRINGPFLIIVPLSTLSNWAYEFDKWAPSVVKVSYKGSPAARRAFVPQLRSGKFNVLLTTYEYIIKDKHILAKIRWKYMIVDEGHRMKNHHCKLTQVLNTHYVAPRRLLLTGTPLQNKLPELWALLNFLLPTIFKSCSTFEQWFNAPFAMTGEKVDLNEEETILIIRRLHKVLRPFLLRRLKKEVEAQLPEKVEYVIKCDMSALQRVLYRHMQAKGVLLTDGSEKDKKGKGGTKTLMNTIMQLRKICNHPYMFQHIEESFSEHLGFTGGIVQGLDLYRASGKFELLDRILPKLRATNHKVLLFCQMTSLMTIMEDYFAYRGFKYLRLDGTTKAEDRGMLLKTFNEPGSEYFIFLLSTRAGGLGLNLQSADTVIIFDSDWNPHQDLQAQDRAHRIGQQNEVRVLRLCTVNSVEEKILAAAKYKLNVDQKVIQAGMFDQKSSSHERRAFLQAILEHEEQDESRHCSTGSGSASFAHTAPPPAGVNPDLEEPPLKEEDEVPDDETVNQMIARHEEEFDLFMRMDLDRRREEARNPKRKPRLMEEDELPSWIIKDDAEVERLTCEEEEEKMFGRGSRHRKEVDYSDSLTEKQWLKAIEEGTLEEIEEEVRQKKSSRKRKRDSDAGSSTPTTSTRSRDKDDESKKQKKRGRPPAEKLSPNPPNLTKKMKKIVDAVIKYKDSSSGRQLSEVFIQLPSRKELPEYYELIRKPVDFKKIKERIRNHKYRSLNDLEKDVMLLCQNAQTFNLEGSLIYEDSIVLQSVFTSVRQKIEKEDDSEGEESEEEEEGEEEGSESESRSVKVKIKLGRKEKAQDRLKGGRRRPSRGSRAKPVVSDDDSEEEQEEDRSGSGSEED

How the values were obtained:
[1] = biological target: Flag-tagged PRMT1 overexpressed in HCT116 cells (human) (UniProt Q99873); assay: co-IP; Flag-antibody immunoprecipitates from HCT116 cells overexpressing Flag-tagged PRMT1, immunoblot with antibodies to SMARCA4
[2] = biological target: PRMT1, endogenous in HCT116 cells (human (endogenous in HCT116)) (UniProt Q99873); assay: co-IP; endogenous proteins of HCT116 cells; 500 μg cellular extract, specific antibody or normal rabbit IgG, protein A/G Sepharose; washes with 150 mM NaCl, 0.5% NP-40, 0.25% sodium deoxycholate
[3] = biological target: PRMT1, endogenous in HCT116 cells (human (endogenous in HCT116)) (UniProt Q99873); assay: ChIP-reChIP; chromatin from HCT116 cells precipitated with a first antibody and re-precipitated with a second antibody; qPCR of gene promoters (TNS4, EGFR), percent of input

Measured: binding

SWI/SNF related matrix-associated actin-dependent regulator of chromatin subfamily A member 4 (SMARCA4), endogenous in HCT116 cells (from UniProt P51532 1-1647)
binds: all assays above
